The assay concerns the target ClC-5-mVenus (human). The experiment in a line: co-IP; HEK293T cells co-transfected with ClC-5-mVenus and barttin-mCherry; membrane proteins solubilised with ComplexioLyte 47a; cleared lysate incubated 1 h with monoclonal anti-GFP antibody, then 2 h with protein G-sepharose beads; eluted in SDS loading buffer; detected by fluorescence scan of the SDS gel; controls without antibody and with barttin-mCherry alone.

Among the data in article PMC6206076 are binding values, retold here.

Results are given in words; binding and its absence hold for the method and conditions named. In cells and extracts the contact can be indirect. Binding can be weak; no strength is given.

B1: barttin-mCherry (protein, UniProt Q8WZ55 1-320)
chain: MADEKTFRIGFIVLGLFLLALGTFLMSHDRPQVYGTFYAMGSVMVIGGIIWSMCQCYPKITFVPADSDFQGILSPKAMGLLENGLAAEMKSPSPQPPYVRLWEEAAYDQSLPDFSHIQMKVMSYSEDHRSLLAPEMGQPKLGTSDGGEGGPGDVQAWMEAAVVIHKGSDESEGERRLTQSWPGPLACPQGPAPLASFQDDLDMDSSEGSSPNASPHDREEACSPQQEPQGCRCPLDRFQDFALIDAPTLEDEPQEGQQWEIALPNNWQRYPRTKVEEKEASDTGGEEPEKEEEDLYYGLPDGAGDLLPDKELGFEPDTQG
B1: the binding result was “binds”.
